Data as given in PubChem BioAssay AID1224829 (NIAID, 2016).

- Test: 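Follow-up of TLR4-NF-kappaB regulators using six separate siRNAs for each gene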 (follow-up of hits)
- Cells: mouse RAW264.7 G9 macrophage reporter cells
- Reagent: single siRNA against mouse genes, 100 nM
- Time to read-out: 2 days of siRNA knock-down, then 40 min of LPS before fixing
- Challenge: LPS (Salmonella minnesota R595) at 10 ng/ml
- Measurement: 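Imaging of GFP-p65 after 40 min of LPS; nuclear over perinuclear ring intensity ratio, scaled to plate median and non-targeting control wells, given as z-score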
- Reading the numbers: p65 translocation z-score and gene median z-score, per vendor: higher = more nuclear NF-kappaB p65 after LPS
- Rule for the call: 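Active means the replicate-mean z-score lies beyond plus or minus 2, in either direction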
- Calls: active = changed p65 translocation (either direction); inactive = no clear change
The whole screen tested about 3,800 reagents; this is a random part of them. 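Calls cover raised and lowered translocation; gene median uses one vendor's three siRNAs; qiagen siRNAs acted more weakly than ambion siRNAs.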 Unmarked entries are inactive. The numbers tell different reagents against one gene apart.

no.	Target gene	reagent no.	siRNA vendor or control pool	p65 translocation z-score, replicate mean	p65 translocation z-score, replicate 1	p65 translocation z-score, replicate 2	gene median z-score, per vendor
1	A430093F15Rik	1	ambion single siRNA	-0.238	-0.972	0.496	-3.18
2	A430093F15Rik	2	ambion single siRNA	-7.32 (active)	-9.25	-5.39	-3.18
3	A430093F15Rik	3	ambion single siRNA	-1.76	2.63	-6.15	-3.18
4	A430093F15Rik	4	qiagen single siRNA	-0.253	0.00792	-0.513	-0.433
5	A430093F15Rik	5	qiagen single siRNA	-0.734	-1.12	-0.352	-0.433
6	A430093F15Rik	6	qiagen single siRNA	-0.724	-1.64	0.189	-0.433
7	Fam221b	1	ambion single siRNA	-2.2 (active)	-3.14	-1.26	-1.05
8	Fam221b	2	ambion single siRNA	-0.948	-0.855	-1.04	-1.05
9	Fam221b	3	ambion single siRNA	-1.05	-1.05		-1.05
10	Fam221b	4	qiagen single siRNA	1.34	1.09	1.6	1.26
11	Fam221b	5	qiagen single siRNA	-0.306	-2.92	2.3	1.26
12	Fam221b	6	qiagen single siRNA	1.26	1.26		1.26
13	Il17a	1	ambion single siRNA	11 (active)	12.7	9.32	1.23
14	Il17a	2	ambion single siRNA	1.23	2.18	0.273	1.23
15	Il17a	3	ambion single siRNA	-2.24 (active)	-2.02	-2.46	1.23
16	Il17a	4	qiagen single siRNA	-1.34	0.711	-3.39	0.106
17	Il17a	5	qiagen single siRNA	-0.175	0.106	-0.457	0.106
18	Il17a	6	qiagen single siRNA	0.285	0.285		0.106
19	Gab1	1	ambion single siRNA	1.84	3.06	0.617	-1.79
20	Gab1	2	ambion single siRNA				-1.79
21	Gab1	3	ambion single siRNA	-4.9 (active)	-4.19	-5.6	-1.79
22	Gab1	4	qiagen single siRNA	2.24 (active)	2.14	2.35	2.14
23	Gab1	5	qiagen single siRNA	2.37 (active)	1.03	3.71	2.14
24	Gab1	6	qiagen single siRNA	0.899	0.899		2.14
25	1700001G17Rik	1	ambion single siRNA	-1.93	-2.77	-1.08	-1.93
26	1700001G17Rik	2	ambion single siRNA	-3.98 (active)	-4.5	-3.46	-1.93
27	1700001G17Rik	3	ambion single siRNA	3.8 (active)	5.79	1.81	-1.93
28	1700001G17Rik	4	qiagen single siRNA	2.22 (active)	2.82	1.62	0.97
29	1700001G17Rik	5	qiagen single siRNA	1.07	-0.916	3.06	0.97
30	1700001G17Rik	6	qiagen single siRNA	0.145	-0.0279	0.319	0.97
31	Trip12	1	ambion single siRNA	-1.24	-0.496	-1.98	-2.03
32	Trip12	2	ambion single siRNA	-3.59 (active)	-2.61	-4.57	-2.03
33	Trip12	3	ambion single siRNA	-1.89	-1.71	-2.08	-2.03
34	Trip12	4	qiagen single siRNA	-0.537	0.559	-1.63	2.03
35	Trip12	5	qiagen single siRNA	4 (active)	4.61	3.38	2.03
36	Trip12	6	qiagen single siRNA	2.03 (active)	1.64	2.42	2.03
37	5330416C01Rik	1	ambion single siRNA	-3.21 (active)	-4.79	-1.63	-2.03
38	5330416C01Rik	2	ambion single siRNA	-1.32	-0.211	-2.42	-2.03
39	5330416C01Rik	3	ambion single siRNA	-1.99	-2.88	-1.1	-2.03
40	5330416C01Rik	4	qiagen single siRNA	-0.075	-0.163	0.0128	-0.075
41	5330416C01Rik	5	qiagen single siRNA	1.34	0.357	2.32	-0.075
42	5330416C01Rik	6	qiagen single siRNA	-2.17 (active)	-3.23	-1.11	-0.075
43	Tns4	1	ambion single siRNA	-2.17 (active)	-3.17	-1.18	-2.17
44	Tns4	2	ambion single siRNA	0.577	0.696	0.458	-2.17
45	Tns4	3	ambion single siRNA	-5.24 (active)	-5.26	-5.22	-2.17
46	Tns4	4	qiagen single siRNA	1.68	1.43	1.93	1.41
47	Tns4	5	qiagen single siRNA	0.543	-0.304	1.39	1.41
48	Tns4	6	qiagen single siRNA	1.48	0.859	2.09	1.41
49	Pdcl3	1	ambion single siRNA	1.58	2.5	0.652	0.878
50	Pdcl3	2	ambion single siRNA	-0.0683	-1.24	1.1	0.878
51	Pdcl3	3	ambion single siRNA				0.878
52	Pdcl3	4	qiagen single siRNA	0.419	0.483	0.355	0.531
53	Pdcl3	5	qiagen single siRNA	1.21	0.395	2.02	0.531
54	Pdcl3	6	qiagen single siRNA	1.34	0.578	2.11	0.531
55	Grpel2	1	ambion single siRNA	0.467	0.375	0.559	0.242
56	Grpel2	2	ambion single siRNA	0.242	0.207	0.277	0.242
57	Grpel2	3	ambion single siRNA	-1.33	-1.69	-0.956	0.242
58	Grpel2	4	qiagen single siRNA	1.34	0.494	2.19	1.49
59	Grpel2	5	qiagen single siRNA	0.999	-0.148	2.15	1.49
60	Grpel2	6	qiagen single siRNA	1.49	1.18	1.81	1.49
61	Akt1s1	1	ambion single siRNA	-0.0357	0.0251	-0.0965	-1.97
62	Akt1s1	2	ambion single siRNA	-3.78 (active)	-3.95	-3.6	-1.97
63	Akt1s1	3	ambion single siRNA	-1.97	-1.97		-1.97
64	Akt1s1	4	qiagen single siRNA	-0.342	-0.36	-0.325	0.82
65	Akt1s1	5	qiagen single siRNA	2.81 (active)	2.77	2.84	0.82
66	Akt1s1	6	qiagen single siRNA	0.82	0.997	0.642	0.82

Ordered by “p65 translocation z-score, replicate 2” (high to low): 4 of the entries above.
Target gene	reagent no.	siRNA vendor or control pool	p65 translocation z-score, replicate mean	p65 translocation z-score, replicate 1	p65 translocation z-score, replicate 2	gene median z-score, per vendor
Trip12	5	qiagen single siRNA	4 (active)	4.61	3.38	2.03
Trip12	4	qiagen single siRNA	-0.537	0.559	-1.63	2.03
Trip12	3	ambion single siRNA	-1.89	-1.71	-2.08	-2.03
Trip12	2	ambion single siRNA	-3.59 (active)	-2.61	-4.57	-2.03
